In all, about 310,000 compounds went through this assay and about 17,000 (5.5%) were called active. The shares of active, inactive and inconclusive entries below differ from those in the screen. Calls come from the whole dose curve; as a rule, active = well fitted inhibition curve with a large enough effect; inconclusive = small, poorly fitted or top-dose-only effect, or effect the other way; inactive = no such curve, though single readings can be large or run the other way. Where the call is inconclusive, the potency comes from a doubtful curve fit.
Target: Nuclear receptor ROR-gamma (Mus musculus) (UniProt P51450)
Experiment: qHTS for inhibitors of ROR gamma transcriptional activity; note: nearly all actives have a fitted effect of over 60% in size
Settings: Drosophila S2 Gal4-RORgamma UAS-luciferase reporter, 20 h; series mostly up to 53.6 µM
Outline: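 Compounds are pin-transferred onto Drosophila Schneider cells expressing a copper-inducible Gal4–ROR gamma transactivation domain fusion. After 1 hr, copper sulfate is added to 700 uM final; luciferase is read 20 hr later.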
Potency is the fitted concentration of half-maximal effect.

Sequences of proteins named here, by UniProt entry; tags and fusion partners are left off. A change or cut given only in a name is not applied to a line headed by its entry.
UniProt P51450: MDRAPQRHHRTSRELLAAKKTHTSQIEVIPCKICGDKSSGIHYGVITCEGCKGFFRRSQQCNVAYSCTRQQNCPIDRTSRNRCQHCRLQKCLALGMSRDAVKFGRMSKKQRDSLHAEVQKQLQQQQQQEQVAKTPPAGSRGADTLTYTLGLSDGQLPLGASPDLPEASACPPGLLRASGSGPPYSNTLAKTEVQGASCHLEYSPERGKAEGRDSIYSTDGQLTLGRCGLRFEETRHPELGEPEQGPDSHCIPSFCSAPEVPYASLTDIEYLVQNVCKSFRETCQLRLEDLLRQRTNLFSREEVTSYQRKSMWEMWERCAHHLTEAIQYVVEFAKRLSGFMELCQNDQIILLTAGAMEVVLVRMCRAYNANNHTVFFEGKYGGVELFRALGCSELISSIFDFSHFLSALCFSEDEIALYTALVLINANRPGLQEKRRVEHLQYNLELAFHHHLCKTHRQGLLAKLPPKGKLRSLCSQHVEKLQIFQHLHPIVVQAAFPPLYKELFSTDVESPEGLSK

Row | SMILES | Potency
1 | COc1ccc(Nc2nc(N)nc(CSc3nnc(C)s3)n2)cc1 | inconclusive: 25.1 µM [activator, single point]
2 | CCc1nc(Sc2nc(C)cc(C)n2)c2oc3ccccc3c2n1 | inactive
3 | COc1ccc(OCc2nnc(SCC(=O)Nc3ccccc3Cl)o2)cc1 | inconclusive: 0.0355 µM [inhibitor, full curve, poor fit]
4 | C=CC(=O)N=c1sc2ccccc2n1-c1ccccc1 | active: 10 µM
5 | COc1ccccc1N1C(=O)c2cccc3c(C(=O)O)ccc(c23)C1=O | inactive
6 | COc1ccc(-c2noc(CN3CCCCC3)n2)cc1OC | inactive
7 | Cn1c(SCC(=O)Nc2ccccc2-c2ccccc2)nnc1-c1ccco1 | inactive
8 | O=C(/C=C/Nc1ccc(F)c(F)c1)c1ccc(Br)cc1 | inactive
9 | CCc1cccc(N(C(=O)c2csnn2)C(C(=O)NC2CCCCC2)c2ccncc2)c1 (stereo not drawn) | inactive
10 | CCCNS(=O)(=O)c1ccc(CCC(=O)NCC2CCCO2)cc1 (stereo not drawn) | inactive
11 | CCN(CC)Cc1cc2[nH]c3c4ccc(Cl)cc4ncc3c2cc1OC | inconclusive: 14.1 µM [inhibitor, single point]
12 | CCc1ccc(N2CCN(C(=O)c3ccc(OC)c(OC)c3)CC2)cc1 | inconclusive: 31.6 µM [activator, single point]
13 | O=C(Nc1nnc(SCc2ccc(F)cc2)s1)C1CC(=O)N(Cc2ccccc2)C1 (stereo not drawn) | inconclusive: 31.6 µM [activator, single point]
14 | CC(=O)Cc1nsc(NC(=O)c2ccc(Br)o2)n1 | inactive
15 | O=C(OCc1ccc(F)cc1)c1ccc2c(c1)-c1ccccc1C2=O | inactive
16 | COc1ccc(C=C2C=C(C(C)(C)C)C(=O)C(C(C)(C)C)=C2)cc1OC | active: 7.08 µM
17 | Cc1ccc(C2C(C(=O)c3cc4ccccc4o3)=C(O)C(=O)N2CCN2CCOCC2)o1 (stereo not drawn) | inconclusive: 1 µM [activator, full curve, poor fit]
18 | CCOc1ccc(/C=N/NC(=O)c2cc3ccccc3cc2OC)cc1 | inconclusive: 1.12 µM [activator, partial curve]
19 | O=C(Nc1ccccc1N1CCOCC1)c1cnccn1 | inactive
20 | COc1ccc(Cn2c(=O)[nH]c3cc(C(=O)NC4CCCC4)ccc3c2=O)cc1 | inconclusive: 6.31 µM [inhibitor, single point]
21 | O=S(=O)(c1ccccc1)C(/C=N\O)/C=C/c1ccccc1 (stereo not drawn) | inconclusive: 22.4 µM [inhibitor, single point]
22 | Cc1cc2nc(C3CCCN(C(=S)Nc4ccccc4C)C3)[nH]c2cc1C (stereo not drawn) | active: 20 µM
23 | CC(C)C(c1nnnn1Cc1ccccc1)N1CCc2ccccc2C1 (stereo not drawn) | inactive
24 | COc1ccc(C(=O)O/N=C(\N)Cc2ccc(Cl)cc2)cc1OC | inconclusive: 3.98 µM [inhibitor, partial curve]
25 | Cc1ccc(C)c(SCC(=O)Nc2cc(C)nn2-c2ccc(F)cc2)c1 | inconclusive: 15.8 µM [activator, partial curve, poor fit]
26 | O=[N+]([O-])c1cc(Cl)ccc1NCCNc1ncc(C(F)(F)F)cc1Cl | inconclusive: 35.5 µM [inhibitor, single point]
27 | CCC(=O)Nc1cccc(-c2cnc3ccccc3n2)c1 | inactive

Part of the list above, tab-delimited.
Row	SMILES	Potency
19	O=C(Nc1ccccc1N1CCOCC1)c1cnccn1	inactive
20	COc1ccc(Cn2c(=O)[nH]c3cc(C(=O)NC4CCCC4)ccc3c2=O)cc1	inconclusive: 6.31 µM [inhibitor, single point]
21	O=S(=O)(c1ccccc1)C(/C=N\O)/C=C/c1ccccc1 (stereo not drawn)	inconclusive: 22.4 µM [inhibitor, single point]
22	Cc1cc2nc(C3CCCN(C(=S)Nc4ccccc4C)C3)[nH]c2cc1C (stereo not drawn)	active: 20 µM

(list continues)

Row | SMILES | Potency
28 | Cc1ccc(-c2cc(C(F)(F)F)n3nc(C(=O)NCCCn4ccnc4)cc3n2)cc1C | inactive
29 | O=C(CSc1cccc[n+]1[O-])c1ccccc1Br | inconclusive: 12.6 µM [inhibitor, single point]
30 | CC(=O)Nc1nc(-c2ccccc2)c(-c2ccccc2)o1 | active: 12.6 µM
31 | CC(O)CNc1nc2ccccc2n1-c1ncnc2sc3c(c12)CCC3 (stereo not drawn) | inconclusive: 0.224 µM [inhibitor, full curve, poor fit]
32 | CN(C)c1ccc(C(CNC(=O)c2ccc(F)cc2)c2c[nH]c3ccccc23)cc1 (stereo not drawn) | inconclusive: 11.2 µM [activator, single point]
33 | O=C(Nc1ccccc1)N1CCc2ccccc21 | inactive
34 | Brc1c(Br)c(Br)c2n[nH]nc2c1Br | inactive
35 | CCC(Sc1nc2ccccc2o1)C(=O)Nc1nnc(C)s1 (stereo not drawn) | active: 12.6 µM
36 | Cc1nn(CC(=O)NCc2cc3ccccc3[nH]2)c(C)c1[N+](=O)[O-] | inconclusive: 0.631 µM [activator, full curve, poor fit]
37 | CC1=C(C(=O)OCc2ccccc2)C(c2ccc([N+](=O)[O-])cc2)NC(=O)N1CCCCCC(=O)O (stereo not drawn) | active: 10 µM
38 | Cc1ccc(N(CC(=O)NC2CCCC2)C(=O)CNC(=O)c2cccs2)cc1F | inactive
39 | C/C(=N/NC(N)=S)c1ccc(Br)s1 | active: 1.12 µM
40 | N#Cc1cc2c(nc1SCC(=O)N1CCCCC1)CCCC2 | inactive
41 | Cc1cc(C)c(NC(=S)N(C)C)c(C)c1 | inactive
42 | O=C(c1cccc([N+](=O)[O-])c1)N1CCc2ccccc21 | inactive
43 | Cc1ccccc1NC(=O)c1cccc(N2C(=O)C3CCCCC3C2=O)c1 (stereo not drawn) | inactive
44 | O=C(CSc1ccc(Cl)cc1)NC(=O)NCc1ccco1 | inconclusive: 11.2 µM [activator, partial curve]
45 | O=C(NCc1ccco1)C1CCN(S(=O)(=O)c2cccc([N+](=O)[O-])c2)CC1 | inactive
46 | Oc1ccccc1N1CCN(c2ncnc3scc(-c4ccccc4)c23)CC1 | inactive
47 | COc1ccc(C(c2nnnn2CCc2ccccc2)N2CCN(C3CCCC3)CC2)cc1 (stereo not drawn) | inconclusive: 1.41 µM [inhibitor, partial curve, poor fit]
48 | CSC1=N/C(=C\c2ccc(Cl)cc2)C(=O)N1N(C)C | inconclusive: 14.1 µM [activator, partial curve]
49 | COc1ccc(C(=O)N/N=C/c2ccc3cccc(O)c3n2)cc1 | active: 1.41 µM
50 | Cc1nn(C)c(C(=O)Sc2ccccc2)c1[N+](=O)[O-] | inconclusive: 15.8 µM [inhibitor, single point]
51 | N#Cc1c(-c2ccccc2)[nH]c(=O)[nH]c1=O | inactive
52 | Clc1ccc(Cn2ncc3c(N4CCOCC4)ncnc32)cc1 | inconclusive: 31.6 µM [activator, single point]
53 | COC(=O)Cc1c(O)ccn(CCc2ccc(S(N)(=O)=O)cc2)c1=O | inconclusive: 8.91 µM [inhibitor, partial curve]
